Experimental data from the supplement of paper PMC6411743.
± gives the standard deviation of the averaged measurements. The list shows a part of the results, in another mix than the full data.

Chains of the proteins cited; added tags and fusions are not shown. Lines headed by an entry give the natural chain unless they say otherwise; changes in a name come on top.
UniProt Q8N0V3: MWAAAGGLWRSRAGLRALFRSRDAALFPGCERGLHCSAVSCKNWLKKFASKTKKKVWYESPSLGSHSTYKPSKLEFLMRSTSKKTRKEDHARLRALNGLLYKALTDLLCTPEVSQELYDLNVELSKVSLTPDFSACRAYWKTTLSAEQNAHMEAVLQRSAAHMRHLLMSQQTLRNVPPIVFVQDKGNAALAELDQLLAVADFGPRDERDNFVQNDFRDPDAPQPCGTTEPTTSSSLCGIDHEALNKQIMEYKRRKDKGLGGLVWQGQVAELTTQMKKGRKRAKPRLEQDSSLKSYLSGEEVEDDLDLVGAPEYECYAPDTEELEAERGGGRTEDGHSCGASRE
UniProt Q8N954: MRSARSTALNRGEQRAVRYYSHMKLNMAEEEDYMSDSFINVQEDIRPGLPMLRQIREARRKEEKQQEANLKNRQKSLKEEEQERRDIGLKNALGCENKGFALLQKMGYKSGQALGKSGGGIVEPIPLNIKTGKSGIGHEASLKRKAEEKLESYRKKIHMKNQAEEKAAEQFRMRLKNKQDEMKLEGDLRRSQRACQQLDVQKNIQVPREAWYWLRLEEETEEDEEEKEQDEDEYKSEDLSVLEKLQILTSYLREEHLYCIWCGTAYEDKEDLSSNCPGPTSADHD
UniProt Q8N1K5: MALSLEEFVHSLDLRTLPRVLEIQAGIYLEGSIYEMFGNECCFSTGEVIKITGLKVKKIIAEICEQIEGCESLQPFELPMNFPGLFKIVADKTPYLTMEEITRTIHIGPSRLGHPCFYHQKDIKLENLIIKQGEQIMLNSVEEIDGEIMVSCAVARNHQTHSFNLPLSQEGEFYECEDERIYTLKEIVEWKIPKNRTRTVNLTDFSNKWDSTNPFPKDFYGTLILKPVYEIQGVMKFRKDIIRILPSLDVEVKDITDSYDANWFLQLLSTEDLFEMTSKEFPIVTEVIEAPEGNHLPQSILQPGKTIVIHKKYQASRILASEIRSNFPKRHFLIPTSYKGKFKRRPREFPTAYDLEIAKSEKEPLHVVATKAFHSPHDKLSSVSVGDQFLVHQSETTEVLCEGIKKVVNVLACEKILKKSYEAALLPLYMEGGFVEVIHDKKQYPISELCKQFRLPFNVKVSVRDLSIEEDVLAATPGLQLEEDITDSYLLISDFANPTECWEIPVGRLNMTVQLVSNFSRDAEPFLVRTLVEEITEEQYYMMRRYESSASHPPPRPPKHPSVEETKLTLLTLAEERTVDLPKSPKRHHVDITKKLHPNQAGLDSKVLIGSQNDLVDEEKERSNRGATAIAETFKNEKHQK
UniProt Q8IYH5: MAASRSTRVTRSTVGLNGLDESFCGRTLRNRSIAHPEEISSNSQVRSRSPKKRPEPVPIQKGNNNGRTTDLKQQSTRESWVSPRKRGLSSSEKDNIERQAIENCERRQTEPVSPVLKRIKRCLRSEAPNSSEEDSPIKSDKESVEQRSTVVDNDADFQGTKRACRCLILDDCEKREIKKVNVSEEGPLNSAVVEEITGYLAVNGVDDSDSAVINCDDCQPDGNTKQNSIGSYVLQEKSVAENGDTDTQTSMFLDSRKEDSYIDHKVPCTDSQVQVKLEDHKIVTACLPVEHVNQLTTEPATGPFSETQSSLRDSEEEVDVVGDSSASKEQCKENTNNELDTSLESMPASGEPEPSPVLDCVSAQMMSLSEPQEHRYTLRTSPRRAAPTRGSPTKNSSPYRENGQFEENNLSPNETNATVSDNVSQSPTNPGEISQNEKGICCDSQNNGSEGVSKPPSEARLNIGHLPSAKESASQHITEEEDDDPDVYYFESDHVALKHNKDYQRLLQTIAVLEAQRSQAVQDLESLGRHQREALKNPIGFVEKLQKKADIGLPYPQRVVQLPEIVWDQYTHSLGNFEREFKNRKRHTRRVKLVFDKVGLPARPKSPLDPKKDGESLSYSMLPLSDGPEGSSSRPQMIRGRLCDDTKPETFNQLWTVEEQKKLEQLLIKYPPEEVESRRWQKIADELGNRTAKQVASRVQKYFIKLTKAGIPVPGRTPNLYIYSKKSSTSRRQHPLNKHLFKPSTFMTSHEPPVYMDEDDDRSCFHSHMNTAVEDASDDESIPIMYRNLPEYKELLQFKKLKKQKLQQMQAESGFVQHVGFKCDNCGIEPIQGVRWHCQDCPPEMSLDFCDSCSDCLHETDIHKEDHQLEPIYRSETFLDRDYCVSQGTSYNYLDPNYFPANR
UniProt Q8N6R0: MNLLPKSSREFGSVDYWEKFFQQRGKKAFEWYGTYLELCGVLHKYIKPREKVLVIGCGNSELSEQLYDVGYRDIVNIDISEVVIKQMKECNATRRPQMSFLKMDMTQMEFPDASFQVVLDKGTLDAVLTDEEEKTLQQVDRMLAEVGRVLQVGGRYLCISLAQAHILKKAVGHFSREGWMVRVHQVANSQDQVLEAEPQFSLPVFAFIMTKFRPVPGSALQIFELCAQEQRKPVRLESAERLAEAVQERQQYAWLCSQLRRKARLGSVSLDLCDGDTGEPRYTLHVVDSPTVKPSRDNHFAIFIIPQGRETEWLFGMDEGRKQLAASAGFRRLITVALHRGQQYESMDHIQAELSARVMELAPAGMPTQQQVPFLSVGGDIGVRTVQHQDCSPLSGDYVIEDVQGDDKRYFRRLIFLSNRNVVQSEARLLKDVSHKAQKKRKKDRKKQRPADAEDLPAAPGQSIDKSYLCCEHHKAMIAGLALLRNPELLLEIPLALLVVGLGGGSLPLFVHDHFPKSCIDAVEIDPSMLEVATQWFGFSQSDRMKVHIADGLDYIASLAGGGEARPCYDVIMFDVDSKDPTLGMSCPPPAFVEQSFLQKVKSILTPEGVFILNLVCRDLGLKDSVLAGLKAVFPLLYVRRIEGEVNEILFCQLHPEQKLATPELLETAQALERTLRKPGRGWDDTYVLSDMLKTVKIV
UniProt Q86US8: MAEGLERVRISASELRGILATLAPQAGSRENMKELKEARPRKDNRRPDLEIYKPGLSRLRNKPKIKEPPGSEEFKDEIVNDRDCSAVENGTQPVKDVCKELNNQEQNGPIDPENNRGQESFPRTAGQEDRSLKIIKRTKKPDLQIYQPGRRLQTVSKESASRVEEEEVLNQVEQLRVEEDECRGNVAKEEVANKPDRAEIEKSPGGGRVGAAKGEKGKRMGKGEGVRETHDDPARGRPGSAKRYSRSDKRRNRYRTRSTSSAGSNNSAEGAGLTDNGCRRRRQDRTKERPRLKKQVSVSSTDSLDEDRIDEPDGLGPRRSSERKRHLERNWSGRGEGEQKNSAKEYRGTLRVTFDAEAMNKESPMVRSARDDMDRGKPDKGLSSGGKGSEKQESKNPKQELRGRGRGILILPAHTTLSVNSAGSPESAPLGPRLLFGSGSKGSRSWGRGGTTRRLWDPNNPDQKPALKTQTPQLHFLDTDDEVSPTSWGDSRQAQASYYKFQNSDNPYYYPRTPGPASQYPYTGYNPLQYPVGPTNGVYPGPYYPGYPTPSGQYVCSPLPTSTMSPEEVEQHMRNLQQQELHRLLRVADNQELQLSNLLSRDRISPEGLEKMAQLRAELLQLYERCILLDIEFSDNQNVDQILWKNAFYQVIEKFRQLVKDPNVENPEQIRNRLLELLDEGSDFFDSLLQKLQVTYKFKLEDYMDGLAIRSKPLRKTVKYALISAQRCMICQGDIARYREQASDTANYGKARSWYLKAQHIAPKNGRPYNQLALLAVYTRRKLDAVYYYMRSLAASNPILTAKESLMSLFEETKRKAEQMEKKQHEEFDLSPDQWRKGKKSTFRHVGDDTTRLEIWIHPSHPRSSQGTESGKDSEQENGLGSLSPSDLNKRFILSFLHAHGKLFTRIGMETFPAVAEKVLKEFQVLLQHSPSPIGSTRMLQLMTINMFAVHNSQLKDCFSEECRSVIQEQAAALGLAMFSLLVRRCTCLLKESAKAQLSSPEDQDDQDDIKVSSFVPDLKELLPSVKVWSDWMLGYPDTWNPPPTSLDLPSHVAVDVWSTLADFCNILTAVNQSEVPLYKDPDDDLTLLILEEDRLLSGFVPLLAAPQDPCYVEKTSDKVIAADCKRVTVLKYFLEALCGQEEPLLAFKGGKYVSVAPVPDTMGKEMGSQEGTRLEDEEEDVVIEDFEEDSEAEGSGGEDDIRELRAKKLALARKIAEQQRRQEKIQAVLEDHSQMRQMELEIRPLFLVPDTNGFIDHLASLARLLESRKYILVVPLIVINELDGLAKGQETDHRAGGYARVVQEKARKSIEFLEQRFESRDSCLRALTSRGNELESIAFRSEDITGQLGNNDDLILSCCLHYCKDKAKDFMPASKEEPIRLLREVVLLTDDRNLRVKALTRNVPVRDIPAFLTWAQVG
UniProt Q8IWV8: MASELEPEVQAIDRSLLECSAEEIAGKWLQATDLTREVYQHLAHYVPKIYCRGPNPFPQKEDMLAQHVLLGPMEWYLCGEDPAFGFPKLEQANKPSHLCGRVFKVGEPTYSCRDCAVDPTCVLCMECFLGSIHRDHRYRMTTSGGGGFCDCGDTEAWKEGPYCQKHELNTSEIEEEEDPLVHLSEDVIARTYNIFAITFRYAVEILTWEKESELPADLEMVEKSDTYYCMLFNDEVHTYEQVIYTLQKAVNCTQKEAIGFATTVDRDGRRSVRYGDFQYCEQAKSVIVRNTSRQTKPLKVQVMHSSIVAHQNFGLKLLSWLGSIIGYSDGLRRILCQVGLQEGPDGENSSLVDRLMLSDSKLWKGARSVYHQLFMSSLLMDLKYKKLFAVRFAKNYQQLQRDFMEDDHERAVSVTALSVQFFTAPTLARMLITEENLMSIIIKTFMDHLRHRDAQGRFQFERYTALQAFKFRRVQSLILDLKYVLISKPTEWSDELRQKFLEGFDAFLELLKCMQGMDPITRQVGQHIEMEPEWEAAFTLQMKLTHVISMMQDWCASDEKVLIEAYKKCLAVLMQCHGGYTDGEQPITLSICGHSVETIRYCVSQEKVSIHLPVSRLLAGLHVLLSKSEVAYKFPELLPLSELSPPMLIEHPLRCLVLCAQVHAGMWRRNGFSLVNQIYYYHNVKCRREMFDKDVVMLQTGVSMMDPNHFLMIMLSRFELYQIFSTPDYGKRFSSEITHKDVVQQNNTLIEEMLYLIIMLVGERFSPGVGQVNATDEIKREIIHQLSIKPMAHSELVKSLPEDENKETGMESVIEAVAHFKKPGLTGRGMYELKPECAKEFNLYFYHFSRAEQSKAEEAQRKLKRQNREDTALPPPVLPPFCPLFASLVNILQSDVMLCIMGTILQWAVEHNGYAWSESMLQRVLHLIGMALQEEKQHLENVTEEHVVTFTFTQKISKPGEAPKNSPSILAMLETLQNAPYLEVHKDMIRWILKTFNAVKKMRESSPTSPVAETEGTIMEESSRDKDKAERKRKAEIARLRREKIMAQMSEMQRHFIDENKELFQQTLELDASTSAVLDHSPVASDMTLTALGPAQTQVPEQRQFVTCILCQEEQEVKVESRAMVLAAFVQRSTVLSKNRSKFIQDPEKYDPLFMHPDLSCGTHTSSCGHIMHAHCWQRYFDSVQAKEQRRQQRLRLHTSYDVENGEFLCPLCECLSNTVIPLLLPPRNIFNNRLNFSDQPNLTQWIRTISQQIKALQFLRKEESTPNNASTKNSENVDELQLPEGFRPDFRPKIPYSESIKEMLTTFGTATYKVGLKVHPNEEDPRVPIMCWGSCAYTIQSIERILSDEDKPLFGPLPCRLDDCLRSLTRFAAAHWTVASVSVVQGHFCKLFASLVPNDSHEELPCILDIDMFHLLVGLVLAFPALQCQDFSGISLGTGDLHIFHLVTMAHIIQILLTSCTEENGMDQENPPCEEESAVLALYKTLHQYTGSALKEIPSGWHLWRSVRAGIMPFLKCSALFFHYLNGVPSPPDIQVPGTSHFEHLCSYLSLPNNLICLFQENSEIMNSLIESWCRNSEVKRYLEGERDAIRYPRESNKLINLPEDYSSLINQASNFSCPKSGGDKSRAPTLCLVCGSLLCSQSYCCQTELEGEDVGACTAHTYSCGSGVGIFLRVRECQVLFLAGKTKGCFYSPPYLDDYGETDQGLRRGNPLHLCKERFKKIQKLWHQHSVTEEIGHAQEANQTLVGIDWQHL
UniProt Q8N4J0: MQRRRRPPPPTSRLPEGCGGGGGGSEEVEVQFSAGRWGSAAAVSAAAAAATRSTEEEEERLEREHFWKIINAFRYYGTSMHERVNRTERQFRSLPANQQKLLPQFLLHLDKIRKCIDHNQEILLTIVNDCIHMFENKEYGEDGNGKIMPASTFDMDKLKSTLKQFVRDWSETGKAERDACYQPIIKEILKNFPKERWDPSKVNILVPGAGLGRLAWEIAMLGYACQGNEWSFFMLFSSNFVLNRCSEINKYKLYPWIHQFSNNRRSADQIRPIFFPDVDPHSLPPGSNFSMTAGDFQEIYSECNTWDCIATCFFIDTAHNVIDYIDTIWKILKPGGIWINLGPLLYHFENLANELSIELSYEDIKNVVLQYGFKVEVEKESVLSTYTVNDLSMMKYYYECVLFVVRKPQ

Compound: Nc1ncnc2c1ncn2[C@@H]1O[C@H](COP(=O)(O)OP(=O)(O)NP(=O)(O)O)[C@@H](O)[C@H]1O [adenylyl imidodiphosphate]
Assay: NP40-soluble protein abundance relative to vehicle (solubility fold change) (ratio); higher = more soluble protein in presence of AMP-PNP
How it was run: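 Jurkat crude lysate prepared with a Dounce homogeniser was treated at eight concentrations spanning 0.1 to 10 mM, 10 min at room temperature then 3 min at 37 °C. Solubilisation with 0.8% NP40 and benzonase and ultracentrifugation preceded TMT labelling of the supernatant for LC-MS/MS. Fold change against the detergent-processed vehicle was determined per replicate from vsn-normalised intensities, across three independent experiments.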

Target	NP40-soluble protein abundance (concentration: 1mM)	NP40-soluble protein abundance (concentration: 2mM)	NP40-soluble protein abundance (concentration: 4mM)	NP40-soluble protein abundance (concentration: 6mM)	NP40-soluble protein abundance (concentration: 8mM)	NP40-soluble protein abundance (concentration: 10mM)
UniProt Q86U38	1 ± 0.038	0.968 ± 0.034	1.07 ± 0.022	1.05 ± 0.036	1.06 ± 0.02	1.04 ± 0.045
UniProt Q8N0V3	0.9958 ± 0.0084	1 ± 0.034	0.976 ± 0.01	0.993 ± 0.012	1 ± 0.036	0.987 ± 0.023
ZNF579 (UniProt Q8NAF0)	1.02 ± 0.069	1.04 ± 0.091	1.01 ± 0.056	1.06 ± 0.076	1.05 ± 0.058	1.04 ± 0.085
UniProt Q8IZM8	1.03 ± 0.015	1.05 ± 0.032	1 ± 0.016	1.01 ± 0.025	1 ± 0.018	1.01 ± 0.019
UniProt Q8N954 and related entries	1.05 ± 0.057	1.08 ± 0.053	1.09 ± 0.021	1.09 ± 0.025	1.11 ± 0.034	1.12 ± 0.025
UniProt Q8N1K5 and related entries	0.974 ± 0.016	0.917 ± 0.047	0.946 ± 0.016	0.899 ± 0.021	0.924 ± 0.0099	0.88 ± 0.03
HPS6 (UniProt Q86YV9)	0.9785 ± 0.0057	0.946 ± 0.011	0.957 ± 0.051	0.958 ± 0.02	0.9728 ± 0.0074	0.9453 ± 0.0044
UniProt Q7Z7L7	1.01 ± 0.025	0.988 ± 0.03	1.038 ± 0.0026	0.994 ± 0.015	1.01 ± 0.034	0.9764 ± 0.0041
UniProt Q86VV8 and related entries	0.879 ± 0.039	0.847 ± 0.035	0.886 ± 0.086	0.962 ± 0.056	0.964 ± 0.06	0.917 ± 0.077
UniProt Q8N8A2 and related entries	0.995 ± 0.023	0.942 ± 0.091	0.991 ± 0.052	0.92 ± 0.044	0.91 ± 0.013	0.883 ± 0.032
GUF1 (UniProt Q8N442)	0.986 ± 0.026	0.965 ± 0.031	1.01 ± 0.028	0.983 ± 0.034	1.03 ± 0.059	1.03 ± 0.04
LMTK2 (UniProt Q8IWU2)	1.021 ± 0.0014	0.991 ± 0.022	0.994 ± 0.014	1 ± 0.026	1.0012 ± 0.00042	0.972 ± 0.014
UniProt Q8N8K9-2|Q8N8K9-3	0.975 ± 0.01	1.19 ± 0.28	0.9704 ± 0.0049	0.987 ± 0.049	1 ± 0.05	0.989 ± 0.088
LRRC47 (UniProt Q8N1G4)	1 ± 0.025	1.01 ± 0.021	1.03 ± 0.021	1.06 ± 0.03	1.08 ± 0.034	1.1 ± 0.06
YRDC (UniProt Q86U90)	0.9988 ± 0.0045	0.981 ± 0.018	1 ± 0.028	1.09 ± 0.075	1.08 ± 0.079	1.09 ± 0.072
KRI1 (UniProt Q8N9T8)	1.04 ± 0.013	1.09 ± 0.053	1.038 ± 0.0084	1.02 ± 0.026	1.021 ± 0.0046	1.04 ± 0.014
UniProt Q8IYH5 and related entries	0.966 ± 0.043	0.981 ± 0.03	0.968 ± 0.05	0.994 ± 0.023	0.942 ± 0.044	0.966 ± 0.013
UniProt Q8N6R0 and related entries	0.998 ± 0.025	0.911 ± 0.066	0.991 ± 0.014	0.946 ± 0.019	0.969 ± 0.017	0.903 ± 0.023
ASCC3 (UniProt Q8N3C0)	1.06 ± 0.011	1.07 ± 0.029	1.1 ± 0.013	1.1 ± 0.095	1.15 ± 0.095	1.2 ± 0.082
SMG6 (UniProt Q86US8)	1.06 ± 0.021	1.08 ± 0.05	1.08 ± 0.015	1.06 ± 0.065	1.08 ± 0.051	1.11 ± 0.067
UniProt Q86W42 and related entries	1.17 ± 0.087	1.25 ± 0.065	1.36 ± 0.11	1.49 ± 0.1	1.65 ± 0.18	1.67 ± 0.27
UniProt Q8IWV8 and related entries	0.974 ± 0.012	0.948 ± 0.078	1.01 ± 0.037	0.971 ± 0.013	0.975 ± 0.029	0.923 ± 0.035
GCC2 (UniProt Q8IWJ2)	1.036 ± 0.0092	1.08 ± 0.079	1.04 ± 0.027	0.985 ± 0.02	0.966 ± 0.013	0.983 ± 0.023
UniProt Q8N4J0	0.96 ± 0.036	0.903 ± 0.043	0.95 ± 0.018	0.978 ± 0.07	1.02 ± 0.048	0.973 ± 0.04
Q8IWY7 (UniProt Q6IQ55)	1 ± 0.028	0.973 ± 0.033	1.01 ± 0.041	1.01 ± 0.017	0.966 ± 0.038	0.97 ± 0.019
UniProt Q8IYB5-2|Q8IYB5-3	0.988 ± 0.028	0.986 ± 0.011	1.01 ± 0.031	0.995 ± 0.038	0.995 ± 0.025	1.01 ± 0.015

Some of the entries so far, field by field.
UniProt Q8N954 and related entries
  NP40-soluble protein abundance (concentration: 1mM): 1.05 ± 0.057; NP40-soluble protein abundance (concentration: 2mM): 1.08 ± 0.053; NP40-soluble protein abundance (concentration: 4mM): 1.09 ± 0.021; NP40-soluble protein abundance (concentration: 6mM): 1.09 ± 0.025; NP40-soluble protein abundance (concentration: 8mM): 1.11 ± 0.034; NP40-soluble protein abundance (concentration: 10mM): 1.12 ± 0.025
UniProt Q8N1K5 and related entries
  NP40-soluble protein abundance (concentration: 1mM): 0.974 ± 0.016; NP40-soluble protein abundance (concentration: 2mM): 0.917 ± 0.047; NP40-soluble protein abundance (concentration: 4mM): 0.946 ± 0.016; NP40-soluble protein abundance (concentration: 6mM): 0.899 ± 0.021; NP40-soluble protein abundance (concentration: 8mM): 0.924 ± 0.0099; NP40-soluble protein abundance (concentration: 10mM): 0.88 ± 0.03
